Assay results

From PubChem BioAssay record AID504749 (NCATS, 2011).

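A panel of P. falciparum strains inside erythrocytes is exposed to compounds for three days, then a DNA-binding dye reports the amount of parasite DNA. Each compound was titrated across a series from about 0.000037 to 29 µM. The number is the fitted AC50, the concentration giving a half-maximal change in signal; a lower value means higher potency, whether the curve shows a decrease or an increase. Calls follow the curve class and fit quality: every row here is inconclusive, covering signal-raising curves and weak, poorly fitted, partial or highest-dose-only inhibition curves.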

Values are in µM. All entries here are filed as inconclusive. These entries are mostly ones the record files as inconclusive; other results of the assay are not listed here. A potency from a partial, single-point or poor curve is only a rough figure.

For CN(C)C/C=C(/c1ccc(Br)cc1)c1cccnc1 [P94_40] the result was potency 12.59 µM (inhibitor, single point).
For CN(C)C/C=C(/c1ccc(Br)cc1)c1cccnc1 [ATS95] the result was potency 12.59 µM (inhibitor, single point).
For CN(C)C/C=C(/c1ccc(Br)cc1)c1cccnc1 [TAB165] the result was potency 10 µM (inhibitor, single point).
For CN(C)C/C=C(/c1ccc(Br)cc1)c1cccnc1 [PAD] the result was potency 17.78 µM (inhibitor, single point).
For CN(C)C/C=C(/c1ccc(Br)cc1)c1cccnc1 [P93_24] the result was potency 11.22 µM (inhibitor, partial curve).
For CN(C)C/C=C(/c1ccc(Br)cc1)c1cccnc1 [AA1029] the result was potency 8.912 µM (inhibitor, partial curve).
For CN(C)C/C=C(/c1ccc(Br)cc1)c1cccnc1 [GB4] the result was potency 15.1 µM (inhibitor, partial curve).
For CN(C)C/C=C(/c1ccc(Br)cc1)c1cccnc1 [CP192] the result was potency 0.0005 µM (inhibitor).
For CN(C)C/C=C(/c1ccc(Br)cc1)c1cccnc1 [ECU] the result was potency 12.59 µM (inhibitor, partial curve).
For CN(C)C/C=C(/c1ccc(Br)cc1)c1cccnc1 [CP237] the result was potency 10 µM (inhibitor, partial curve).
For CN(C)C/C=C(/c1ccc(Br)cc1)c1cccnc1 [CP203] the result was potency 19.01 µM (inhibitor, partial curve, poor fit).
For CCC1OC(=O)C[C@H](O)C(C)[C@@H](O[C@@H]2OC(C)C(O)C(N(C)C)C2O)C(CCN2CC(C)CC(C)C2)CC(C)C(=O)/C=C/C(C)=C\[C@@H]1COC1OC(C)C(O)C(OC)C1OC (stereo partly specified) [CP269] the result was potency 8.492 µM (inhibitor, partial curve).
For CCC1OC(=O)C[C@H](O)C(C)[C@@H](O[C@@H]2OC(C)C(O)C(N(C)C)C2O)C(CCN2CC(C)CC(C)C2)CC(C)C(=O)/C=C/C(C)=C\[C@@H]1COC1OC(C)C(O)C(OC)C1OC (stereo partly specified) [DFO2036] the result was potency 11.22 µM (inhibitor, partial curve).
For CCC1OC(=O)C[C@H](O)C(C)[C@@H](O[C@@H]2OC(C)C(O)C(N(C)C)C2O)C(CCN2CC(C)CC(C)C2)CC(C)C(=O)/C=C/C(C)=C\[C@@H]1COC1OC(C)C(O)C(OC)C1OC (stereo partly specified) [ECU] the result was potency 10 µM (inhibitor, partial curve).
For CCC1OC(=O)C[C@H](O)C(C)[C@@H](O[C@@H]2OC(C)C(O)C(N(C)C)C2O)C(CCN2CC(C)CC(C)C2)CC(C)C(=O)/C=C/C(C)=C\[C@@H]1COC1OC(C)C(O)C(OC)C1OC (stereo partly specified) [CP252] the result was potency 11.22 µM (inhibitor, partial curve).
For CCC1OC(=O)C[C@H](O)C(C)[C@@H](O[C@@H]2OC(C)C(O)C(N(C)C)C2O)C(CCN2CC(C)CC(C)C2)CC(C)C(=O)/C=C/C(C)=C\[C@@H]1COC1OC(C)C(O)C(OC)C1OC (stereo partly specified) [P94_40] the result was potency 4.467 µM (inhibitor, partial curve).
For CCC1OC(=O)C[C@H](O)C(C)[C@@H](O[C@@H]2OC(C)C(O)C(N(C)C)C2O)C(CCN2CC(C)CC(C)C2)CC(C)C(=O)/C=C/C(C)=C\[C@@H]1COC1OC(C)C(O)C(OC)C1OC (stereo partly specified) [parasite line B] the result was potency 11.22 µM (inhibitor, single point).
For CCC1OC(=O)C[C@H](O)C(C)[C@@H](O[C@@H]2OC(C)C(O)C(N(C)C)C2O)C(CCN2CC(C)CC(C)C2)CC(C)C(=O)/C=C/C(C)=C\[C@@H]1COC1OC(C)C(O)C(OC)C1OC (stereo partly specified) [ATS189] the result was potency 8.912 µM (inhibitor, partial curve).
For CCC1OC(=O)C[C@H](O)C(C)[C@@H](O[C@@H]2OC(C)C(O)C(N(C)C)C2O)C(CCN2CC(C)CC(C)C2)CC(C)C(=O)/C=C/C(C)=C\[C@@H]1COC1OC(C)C(O)C(OC)C1OC (stereo partly specified) [CP297] the result was potency 15.1 µM (inhibitor, single point).
For CCC1OC(=O)C[C@H](O)C(C)[C@@H](O[C@@H]2OC(C)C(O)C(N(C)C)C2O)C(CCN2CC(C)CC(C)C2)CC(C)C(=O)/C=C/C(C)=C\[C@@H]1COC1OC(C)C(O)C(OC)C1OC (stereo partly specified) [TAB113] the result was potency 11.22 µM (inhibitor, partial curve).
For CCC1OC(=O)C[C@H](O)C(C)[C@@H](O[C@@H]2OC(C)C(O)C(N(C)C)C2O)C(CCN2CC(C)CC(C)C2)CC(C)C(=O)/C=C/C(C)=C\[C@@H]1COC1OC(C)C(O)C(OC)C1OC (stereo partly specified) [CP194] the result was potency 13.46 µM (inhibitor, partial curve).